From the supplement of paper PMC10849652
The other results are listed elsewhere or left out.

Chains of the proteins cited; added tags and fusions are not shown. Lines headed by an entry give the natural chain unless they say otherwise; changes in a name come on top.
UniProt Q9Y664: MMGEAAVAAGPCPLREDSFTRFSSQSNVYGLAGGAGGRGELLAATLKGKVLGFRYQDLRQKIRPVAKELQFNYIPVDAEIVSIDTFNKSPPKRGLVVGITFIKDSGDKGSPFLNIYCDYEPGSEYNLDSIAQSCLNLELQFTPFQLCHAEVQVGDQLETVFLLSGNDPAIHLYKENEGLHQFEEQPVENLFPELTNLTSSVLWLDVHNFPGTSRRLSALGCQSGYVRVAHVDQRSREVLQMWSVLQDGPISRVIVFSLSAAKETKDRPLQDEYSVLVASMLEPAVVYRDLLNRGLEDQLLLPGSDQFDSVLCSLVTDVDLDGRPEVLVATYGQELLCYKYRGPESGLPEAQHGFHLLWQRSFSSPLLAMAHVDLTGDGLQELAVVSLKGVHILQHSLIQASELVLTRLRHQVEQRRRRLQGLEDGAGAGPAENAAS
UniProt P07942: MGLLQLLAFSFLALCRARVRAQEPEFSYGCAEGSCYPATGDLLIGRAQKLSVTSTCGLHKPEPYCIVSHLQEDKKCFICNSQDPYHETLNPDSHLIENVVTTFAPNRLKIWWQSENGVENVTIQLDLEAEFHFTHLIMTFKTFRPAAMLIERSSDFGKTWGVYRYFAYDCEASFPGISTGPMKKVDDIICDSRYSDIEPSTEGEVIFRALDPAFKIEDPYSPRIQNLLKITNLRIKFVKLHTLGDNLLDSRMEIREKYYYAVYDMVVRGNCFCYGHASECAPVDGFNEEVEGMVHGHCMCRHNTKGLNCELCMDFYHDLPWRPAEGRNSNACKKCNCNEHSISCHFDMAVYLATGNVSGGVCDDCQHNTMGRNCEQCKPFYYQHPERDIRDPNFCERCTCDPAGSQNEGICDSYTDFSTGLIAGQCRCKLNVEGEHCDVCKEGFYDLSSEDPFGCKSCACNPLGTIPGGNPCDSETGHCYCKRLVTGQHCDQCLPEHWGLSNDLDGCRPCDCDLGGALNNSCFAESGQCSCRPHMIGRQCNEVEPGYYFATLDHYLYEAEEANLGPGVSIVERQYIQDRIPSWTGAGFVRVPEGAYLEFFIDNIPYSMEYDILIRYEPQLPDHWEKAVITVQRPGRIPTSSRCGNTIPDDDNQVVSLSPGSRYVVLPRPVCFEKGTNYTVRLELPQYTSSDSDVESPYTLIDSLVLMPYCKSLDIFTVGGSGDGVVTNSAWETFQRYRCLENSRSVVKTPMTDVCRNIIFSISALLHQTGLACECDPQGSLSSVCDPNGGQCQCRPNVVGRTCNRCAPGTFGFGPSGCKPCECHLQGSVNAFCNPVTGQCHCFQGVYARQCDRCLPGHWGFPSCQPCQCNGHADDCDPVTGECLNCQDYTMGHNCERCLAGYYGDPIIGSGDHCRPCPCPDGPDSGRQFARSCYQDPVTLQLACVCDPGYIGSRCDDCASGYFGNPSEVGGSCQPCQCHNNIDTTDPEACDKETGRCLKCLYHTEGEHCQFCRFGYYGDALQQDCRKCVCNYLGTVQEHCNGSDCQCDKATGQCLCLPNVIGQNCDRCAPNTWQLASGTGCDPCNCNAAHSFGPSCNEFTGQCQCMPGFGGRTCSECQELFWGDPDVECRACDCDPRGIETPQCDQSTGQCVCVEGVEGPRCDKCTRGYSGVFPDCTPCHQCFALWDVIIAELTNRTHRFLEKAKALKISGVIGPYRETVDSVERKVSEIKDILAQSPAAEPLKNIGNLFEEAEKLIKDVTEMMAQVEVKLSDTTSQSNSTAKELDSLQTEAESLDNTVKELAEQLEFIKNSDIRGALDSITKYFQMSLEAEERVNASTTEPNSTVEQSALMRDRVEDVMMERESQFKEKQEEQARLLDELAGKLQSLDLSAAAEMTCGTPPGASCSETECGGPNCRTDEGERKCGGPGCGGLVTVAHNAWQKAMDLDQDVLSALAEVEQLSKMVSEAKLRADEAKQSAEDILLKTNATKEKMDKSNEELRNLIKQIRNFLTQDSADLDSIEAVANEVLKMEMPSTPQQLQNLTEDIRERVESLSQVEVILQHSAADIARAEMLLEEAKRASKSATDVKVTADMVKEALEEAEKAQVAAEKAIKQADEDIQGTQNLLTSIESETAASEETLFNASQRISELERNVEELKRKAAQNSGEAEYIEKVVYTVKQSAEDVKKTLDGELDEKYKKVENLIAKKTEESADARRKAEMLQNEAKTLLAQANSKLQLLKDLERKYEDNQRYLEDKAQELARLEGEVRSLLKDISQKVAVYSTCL
UniProt O14782: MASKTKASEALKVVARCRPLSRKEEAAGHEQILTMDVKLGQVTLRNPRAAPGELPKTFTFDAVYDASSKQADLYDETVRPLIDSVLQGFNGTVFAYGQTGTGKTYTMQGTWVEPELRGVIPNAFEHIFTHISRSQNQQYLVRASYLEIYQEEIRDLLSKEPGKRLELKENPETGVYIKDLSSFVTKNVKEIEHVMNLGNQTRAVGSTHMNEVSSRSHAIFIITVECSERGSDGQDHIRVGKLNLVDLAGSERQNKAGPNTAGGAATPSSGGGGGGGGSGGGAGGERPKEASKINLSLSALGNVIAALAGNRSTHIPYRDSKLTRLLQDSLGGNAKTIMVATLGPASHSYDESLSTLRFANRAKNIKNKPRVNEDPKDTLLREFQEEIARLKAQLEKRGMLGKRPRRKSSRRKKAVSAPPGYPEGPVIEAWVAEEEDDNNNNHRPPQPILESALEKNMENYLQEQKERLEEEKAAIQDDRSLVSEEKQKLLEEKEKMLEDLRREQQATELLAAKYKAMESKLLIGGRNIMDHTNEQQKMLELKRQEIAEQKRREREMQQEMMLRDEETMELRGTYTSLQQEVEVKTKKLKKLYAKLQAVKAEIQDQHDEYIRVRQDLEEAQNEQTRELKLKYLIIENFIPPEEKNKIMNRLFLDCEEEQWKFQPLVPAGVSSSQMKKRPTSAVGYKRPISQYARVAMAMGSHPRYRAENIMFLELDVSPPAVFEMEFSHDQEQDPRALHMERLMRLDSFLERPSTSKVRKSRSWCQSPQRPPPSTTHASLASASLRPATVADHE
UniProt Q9BXK1: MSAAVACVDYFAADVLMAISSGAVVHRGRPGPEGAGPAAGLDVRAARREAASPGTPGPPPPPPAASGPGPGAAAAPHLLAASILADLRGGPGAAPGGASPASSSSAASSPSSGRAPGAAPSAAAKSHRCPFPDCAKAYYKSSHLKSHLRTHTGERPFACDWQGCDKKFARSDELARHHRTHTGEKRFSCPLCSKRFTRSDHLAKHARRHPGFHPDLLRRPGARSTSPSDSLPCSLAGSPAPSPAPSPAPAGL
UniProt A8MWY0: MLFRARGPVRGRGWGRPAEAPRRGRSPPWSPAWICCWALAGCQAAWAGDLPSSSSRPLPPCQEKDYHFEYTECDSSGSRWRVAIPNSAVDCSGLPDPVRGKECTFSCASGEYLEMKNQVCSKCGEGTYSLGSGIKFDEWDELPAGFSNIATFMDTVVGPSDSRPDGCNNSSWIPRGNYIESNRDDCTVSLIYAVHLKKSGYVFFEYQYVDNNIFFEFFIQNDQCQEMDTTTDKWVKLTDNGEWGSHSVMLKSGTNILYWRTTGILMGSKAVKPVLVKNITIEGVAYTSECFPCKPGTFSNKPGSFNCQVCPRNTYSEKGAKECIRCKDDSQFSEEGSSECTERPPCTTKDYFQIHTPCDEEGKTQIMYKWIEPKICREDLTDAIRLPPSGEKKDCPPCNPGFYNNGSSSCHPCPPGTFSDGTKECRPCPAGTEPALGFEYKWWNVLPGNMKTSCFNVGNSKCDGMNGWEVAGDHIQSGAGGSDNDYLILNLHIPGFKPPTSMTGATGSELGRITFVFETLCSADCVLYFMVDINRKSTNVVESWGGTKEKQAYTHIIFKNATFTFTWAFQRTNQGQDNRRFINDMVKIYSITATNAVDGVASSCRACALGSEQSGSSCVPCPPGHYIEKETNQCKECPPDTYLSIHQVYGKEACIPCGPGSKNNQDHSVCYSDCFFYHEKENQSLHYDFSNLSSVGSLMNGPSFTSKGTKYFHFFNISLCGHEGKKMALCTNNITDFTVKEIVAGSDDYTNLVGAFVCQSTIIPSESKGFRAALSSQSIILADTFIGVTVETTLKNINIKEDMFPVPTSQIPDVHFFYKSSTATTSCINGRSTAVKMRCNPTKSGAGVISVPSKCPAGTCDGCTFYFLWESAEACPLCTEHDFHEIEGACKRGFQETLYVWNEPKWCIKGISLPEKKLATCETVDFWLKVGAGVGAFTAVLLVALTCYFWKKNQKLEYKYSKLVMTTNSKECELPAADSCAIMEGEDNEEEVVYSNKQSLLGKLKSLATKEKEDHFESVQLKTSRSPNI
UniProt Q13601: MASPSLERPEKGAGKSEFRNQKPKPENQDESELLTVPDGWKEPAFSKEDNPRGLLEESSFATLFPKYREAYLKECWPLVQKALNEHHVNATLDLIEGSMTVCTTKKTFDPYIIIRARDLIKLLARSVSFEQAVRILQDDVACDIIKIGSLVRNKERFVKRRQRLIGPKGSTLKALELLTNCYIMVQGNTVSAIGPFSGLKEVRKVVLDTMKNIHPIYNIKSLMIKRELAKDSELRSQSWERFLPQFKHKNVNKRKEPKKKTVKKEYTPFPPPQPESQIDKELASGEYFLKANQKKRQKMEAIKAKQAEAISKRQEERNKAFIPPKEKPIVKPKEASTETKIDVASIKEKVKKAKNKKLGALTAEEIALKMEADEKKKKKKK
UniProt Q9UN81: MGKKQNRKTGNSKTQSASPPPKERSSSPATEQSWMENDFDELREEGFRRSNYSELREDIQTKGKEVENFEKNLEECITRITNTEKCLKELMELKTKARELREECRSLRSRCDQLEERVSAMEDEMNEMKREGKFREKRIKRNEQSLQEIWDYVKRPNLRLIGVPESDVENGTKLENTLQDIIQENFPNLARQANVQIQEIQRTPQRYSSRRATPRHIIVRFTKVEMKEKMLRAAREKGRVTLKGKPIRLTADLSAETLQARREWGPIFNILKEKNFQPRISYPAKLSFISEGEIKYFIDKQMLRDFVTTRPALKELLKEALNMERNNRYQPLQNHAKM
UniProt Q9NS87: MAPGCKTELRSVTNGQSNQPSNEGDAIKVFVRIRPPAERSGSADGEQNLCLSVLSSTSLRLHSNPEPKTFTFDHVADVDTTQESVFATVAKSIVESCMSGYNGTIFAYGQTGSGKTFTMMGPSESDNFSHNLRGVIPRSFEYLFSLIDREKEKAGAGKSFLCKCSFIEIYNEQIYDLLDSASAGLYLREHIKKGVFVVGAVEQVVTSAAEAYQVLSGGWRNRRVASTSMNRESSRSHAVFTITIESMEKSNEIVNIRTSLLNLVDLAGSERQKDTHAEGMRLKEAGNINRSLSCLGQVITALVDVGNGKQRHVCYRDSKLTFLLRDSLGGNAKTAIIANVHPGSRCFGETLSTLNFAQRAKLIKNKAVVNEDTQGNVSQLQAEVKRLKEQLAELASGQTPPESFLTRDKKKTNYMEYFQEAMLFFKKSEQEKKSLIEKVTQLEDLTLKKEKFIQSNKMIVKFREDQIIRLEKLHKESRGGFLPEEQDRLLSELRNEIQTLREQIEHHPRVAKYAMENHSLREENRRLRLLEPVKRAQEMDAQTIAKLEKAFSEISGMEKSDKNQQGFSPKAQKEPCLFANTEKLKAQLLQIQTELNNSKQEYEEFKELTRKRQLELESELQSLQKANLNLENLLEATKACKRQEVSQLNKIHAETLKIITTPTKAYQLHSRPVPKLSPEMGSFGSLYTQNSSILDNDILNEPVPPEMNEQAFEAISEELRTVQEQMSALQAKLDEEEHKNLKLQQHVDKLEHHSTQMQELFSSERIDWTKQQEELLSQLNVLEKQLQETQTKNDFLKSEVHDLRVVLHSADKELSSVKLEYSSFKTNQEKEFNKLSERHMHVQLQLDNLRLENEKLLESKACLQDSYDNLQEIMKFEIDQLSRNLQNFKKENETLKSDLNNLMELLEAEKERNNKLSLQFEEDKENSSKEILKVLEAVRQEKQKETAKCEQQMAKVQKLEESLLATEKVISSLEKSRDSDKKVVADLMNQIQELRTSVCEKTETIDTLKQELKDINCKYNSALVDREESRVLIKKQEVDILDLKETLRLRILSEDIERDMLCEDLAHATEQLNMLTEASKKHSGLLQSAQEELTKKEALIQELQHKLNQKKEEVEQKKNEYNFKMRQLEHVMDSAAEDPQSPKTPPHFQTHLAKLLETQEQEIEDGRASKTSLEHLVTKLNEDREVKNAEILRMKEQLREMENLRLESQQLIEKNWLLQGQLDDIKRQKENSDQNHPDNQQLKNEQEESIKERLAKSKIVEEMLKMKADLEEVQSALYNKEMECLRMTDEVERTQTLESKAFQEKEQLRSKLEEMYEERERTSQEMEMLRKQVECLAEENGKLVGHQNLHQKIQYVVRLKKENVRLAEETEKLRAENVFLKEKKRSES

How the values were obtained:
Experiment in all cases: log2 fold change, soluble protein after heating vs DMSO (PISA); higher = thermal stabilisation; K562 lysate, 10 uM; active = over 0.2 and 3.5 SD of the protein, either way, in both replicates (recomputed)
nilotinib = compound: Cc1cn(-c2cc(NC(=O)c3ccc(C)c(Nc4nccc(-c5cccnc5)n4)c3)cc(C(F)(F)F)c2)cn1 [nilotinib]
Method in brief: (§1)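 Thermal stability, expressed as log-two fold change relative to solvent controls, is given from duplicates. Crude K562 extract in PBS pH 7.4 with 1 mM MgCl2, at 1 mg/mL protein, was treated with 10 μM compound for 30 min and heated in aliquots for 3 min across 48°C-58°C. After pooling, adjustment to 0.5% NP-40 at 4°C and centrifugation at 21,000xg for 90 min, supernatant protein was measured by TMTpro 16plex LC-MS/MS with channel sums equalised.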

[1] = compound: Cc1nc(Nc2n[nH]c3c2CN(C(=O)N[C@H](CN(C)C)c2ccccc2)C3(C)C)c2sccc2n1
Method in brief: as §1

dasatinib = compound: Cc1nc(Nc2ncc(C(=O)Nc3c(C)cccc3Cl)s2)cc(N2CCN(CCO)CC2)n1 [dasatinib]
Method in brief: as §1

[2] = compound: Cc1ncc(-c2ccnc(Nc3ccc(S(C)(=O)=O)cc3)n2)n1C(C)C
Method in brief: as §1

[3] = compound: Cn1cc(-c2ccc3c(c2)CCN3C(=O)Cc2cccc(C(F)(F)F)c2)c2c(N)ncnc21
Method in brief: as §1

quisinostat = compound: Cn1cc(CNCC2CCN(c3ncc(C(=O)NO)cn3)CC2)c2ccccc21 [quisinostat]
Method in brief: as §1

tipifarnib = compound: Cn1cncc1[C@@](N)(c1ccc(Cl)cc1)c1ccc2c(c1)c(-c1cccc(Cl)c1)cc(=O)n2C [tipifarnib]
Method in brief: as §1

[4] = compound: NC(=O)Nc1cc(-c2cccc(F)c2)sc1C(=O)N[C@H]1CCCNC1
Method in brief: as §1

[5] = compound: NC(=O)c1cnc(N[C@@H]2CCCC[C@@H]2N)nc1Nc1cccc(-n2nccn2)c1
Method in brief: as §1

[6] = compound: NC1(c2ccc(-c3nc4ccn5c(=O)[nH]nc5c4cc3-c3ccccc3)cc2)CCC1
Method in brief: as §1

Target	log2 fold change (nilotinib)	log2 fold change [1]	log2 fold change (dasatinib)	log2 fold change [2]	log2 fold change [3]	log2 fold change (quisinostat)	log2 fold change (tipifarnib)	log2 fold change [4]	log2 fold change [5]	log2 fold change [6]
KPTN (UniProt Q9Y664)	inactive: -0.064	inactive: -0.104	inactive: 0.016	inactive: -0.193	inactive: -0.016	inactive: -0.053	inactive: -0.03	inactive: 0.059	inactive: -0.03	inactive: -0.073
LARP4 isoform 4 (UniProt Q71RC2)	inactive: -0.022	inactive: 0.008	inactive: -0.028	inactive: 0.031	inactive: 0.035	inactive: -0.021	inactive: 0.047	inactive: 0.028	inactive: 0.014	inactive: -0.007
KYAT3 (UniProt Q6YP21)	inactive: 0	inactive: -0.029	inactive: 0.027	inactive: -0.029	inactive: 0.017	inactive: -0.021	inactive: 0.013	inactive: -0.024	inactive: -0.014	inactive: -0.008
KDM8 isoform 3 (UniProt Q8N371)	inactive: -0.001	inactive: 0.015	inactive: 0.02	inactive: 0	inactive: 0.05	inactive: -0.016	inactive: -0.065	inactive: 0.041	inactive: 0.009	inactive: -0.025
KLHL41 (UniProt O60662)	inactive: -0.037	inactive: 0.035	inactive: -0.027	inactive: -0.166	inactive: -0.079	inactive: -0.469	inactive: -0.066	inactive: 0.066	inactive: 0.036	inactive: -0.182
KLHDC4 (UniProt Q8TBB5)	inactive: -0.033	inactive: 0.033	inactive: 0.026	inactive: -0.062	inactive: -0.047	inactive: -0.029	inactive: 0.02	inactive: 0.031	inactive: -0.123	inactive: 0.033
KHK isoform 2 (UniProt P50053)	inactive: -0.004	inactive: 0.035	inactive: -0.075	inactive: -0.02	inactive: -0.035	inactive: -0.021	inactive: -0.043	inactive: -0.019	inactive: -0.018	inactive: -0.023
LAMB1 (UniProt P07942)	inactive: -0.012	inactive: 0.034	inactive: 0.008	inactive: 0.023	inactive: 0.026	inactive: -0.031	inactive: 0.008	inactive: 0.024	inactive: 0.037	inactive: 0.005
KIF3C (UniProt O14782)	inactive: -0.038	inactive: -0.117	inactive: 0.026	inactive: 0.191	inactive: 0.062	inactive: -0.204	inactive: -0.187	inactive: 0.043	inactive: -0.194	inactive: 0.145
KLF16 (UniProt Q9BXK1)	inactive: 0.048	inactive: -0.078	inactive: 0.009	inactive: 0.018	inactive: -0.05	inactive: -0.012	inactive: 0.037	inactive: 0.001	inactive: 0.028	inactive: 0.027
KIAA1522 isoform 2 (UniProt Q9P206)	inactive: 0.031	inactive: -0.026	inactive: -0.02	inactive: -0.005	inactive: -0.028	inactive: 0.014	inactive: 0.036	inactive: -0.041	inactive: 0.021	inactive: 0
KIN (UniProt O60870)	inactive: -0.005	inactive: 0.033	inactive: -0.028	inactive: -0.043	inactive: 0.044	inactive: -0.078	inactive: -0.003	inactive: -0.036	inactive: 0.04	inactive: -0.077
LAMTOR5 (UniProt O43504)	inactive: 0.015	inactive: 0.013	inactive: -0.045	inactive: 0.063	inactive: -0.005	inactive: 0.046	inactive: 0.003	inactive: -0.089	inactive: -0.084	inactive: 0.088
KIF22 (UniProt Q14807)	inactive: 0.041	inactive: -0.021	inactive: -0.023	inactive: -0.029	inactive: -0.055	active: -0.451	inactive: -0.015	inactive: 0.081	inactive: -0.023	inactive: -0.171
KMT2C isoform 3 (UniProt Q8NEZ4)	inactive: -0.09	inactive: -0.073	inactive: -0.035	inactive: 0.072	inactive: 0.044	inactive: -0.113	inactive: -0.076	inactive: 0.077	inactive: -0.015	inactive: 0.021
KMT2A isoform 3 (UniProt Q03164)	inactive: 0.098	active: -0.428	inactive: 0.017	inactive: 0.154	inactive: 0.056	inactive: -0.156	inactive: -0.178	inactive: 0.032	inactive: 0.133	inactive: -0.037
KHDC4 (UniProt Q7Z7F0)	inactive: -0.008	inactive: 0.03	inactive: -0.051	inactive: 0.032	inactive: -0.011	inactive: 0.043	inactive: -0.032	inactive: 0.015	inactive: -0.023	inactive: 0.074
KIF3A (UniProt Q9Y496)	inactive: -0.005	inactive: -0.001	inactive: 0.151	inactive: -0.016	inactive: -0.057	inactive: 0.003	inactive: 0.015	inactive: 0.07	inactive: -0.027	inactive: 0.009
KIAA1324L (UniProt A8MWY0)	inactive: 0.122	inactive: -0.042	inactive: 0.031	inactive: 0.031	inactive: 0.018	inactive: -0.059	inactive: 0.054	inactive: 0.029	inactive: -0.004	inactive: 0.014
KRR1 (UniProt Q13601)	inactive: -0.057	inactive: 0.058	inactive: -0.014	inactive: 0.006	inactive: 0.012	active: -0.336	inactive: -0.039	inactive: 0.018	inactive: 0.022	inactive: -0.08
KLC2 (UniProt Q9H0B6)	inactive: 0.016	inactive: 0.013	inactive: -0.062	inactive: 0.067	inactive: 0.041	inactive: -0.017	inactive: 0.063	inactive: 0.012	inactive: 0.013	inactive: -0.036
KIAA0319L (UniProt Q8IZA0)	inactive: 0	inactive: -0.038	inactive: 0.035	inactive: -0.019	inactive: 0.011	inactive: 0.049	inactive: -0.031	inactive: 0.007	inactive: -0.009	inactive: 0.009
L1RE1 (UniProt Q9UN81)	inactive: -0.029	inactive: 0.014	inactive: -0.004	inactive: 0.005	inactive: 0.012	inactive: -0.022	inactive: 0.006	inactive: 0.026	inactive: -0.021	inactive: -0.045
KIF15 (UniProt Q9NS87)	inactive: -0.038	inactive: -0.003	inactive: -0.03	inactive: 0.052	inactive: 0.044	inactive: -0.058	inactive: 0.008	inactive: 0.003	inactive: 0.011	inactive: 0
KEL (UniProt P23276)	inactive: -0.112	inactive: -0.004	inactive: 0.015	inactive: 0.018	inactive: 0.018	inactive: -0.037	inactive: 0.101	inactive: 0.025	inactive: -0.034	inactive: 0.01
KNL1 (UniProt Q8NG31)	inactive: 0.011	inactive: -0.004	inactive: -0.014	inactive: 0.02	inactive: 0.012	inactive: -0.048	inactive: -0.06	inactive: 0.023	inactive: 0.024	inactive: -0.001
KPNA1 (UniProt P52294)	inactive: -0.025	inactive: -0.01	inactive: -0.04	inactive: -0.009	inactive: -0.002	inactive: -0.038	inactive: -0.038	inactive: 0.024	inactive: 0.011	inactive: 0.008
KHDRBS1 (UniProt Q07666)	inactive: -0.032	inactive: -0.012	inactive: -0.048	inactive: -0.011	inactive: -0.003	inactive: 0.037	inactive: 0.032	inactive: 0.005	inactive: 0.011	inactive: 0.028
KLHL36 (UniProt Q8N4N3)	inactive: 0.012	inactive: -0.104	inactive: -0.021	inactive: 0.027	inactive: 0.049	inactive: 0.043	inactive: 0.067	inactive: 0.007	inactive: -0.023	inactive: -0.014

Limited to log2 fold change [5] (two entries from above):
Target,log2 fold change [5]
KEL (UniProt P23276),inactive: -0.034
KNL1 (UniProt Q8NG31),inactive: 0.024

Single records, as listed above. Values in the order: log2 fold change (nilotinib) | log2 fold change [1] | log2 fold change (dasatinib) | log2 fold change [2] | log2 fold change [3] | log2 fold change (quisinostat) | log2 fold change (tipifarnib) | log2 fold change [4] | log2 fold change [5] | log2 fold change [6]
KHDC4 (UniProt Q7Z7F0) as listed: inactive: -0.008 | inactive: 0.03 | inactive: -0.051 | inactive: 0.032 | inactive: -0.011 | inactive: 0.043 | inactive: -0.032 | inactive: 0.015 | inactive: -0.023 | inactive: 0.074
LAMB1 (UniProt P07942) as listed: inactive: -0.012 | inactive: 0.034 | inactive: 0.008 | inactive: 0.023 | inactive: 0.026 | inactive: -0.031 | inactive: 0.008 | inactive: 0.024 | inactive: 0.037 | inactive: 0.005
